Data as given in PubChem BioAssay AID1224828 (NIAID, 2016)
Here is one part, drawn at random, of about 17,000 reagents tested. In the full data, 762 (4.5%) got an active call. 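Active calls include both raised and lowered p65 entry, mostly lowered; wells with fewer than 50 cells lack a z-score.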 The raw values are shown without normalisation. A number with no mark means an inactive call. Reagents against one gene are numbered here. Reagent sequences are not shown.

- Screen: 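Regulators linking TLR4 signalling to p65 nuclear translocation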 (primary screen)
- Cell system: mouse RAW264.7 G9 macrophage reporter cells (GFP-p65, Tnf promoter-mCherry)
- Reagents: siRNA pool against mouse genes, 100 nM
- Timing: 2 days siRNA transfection, then 40 min LPS before fixation
- Treatment: LPS (Salmonella minnesota R595) at 10 ng/ml
- Read-out: 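Microscopy ratio of nuclear to perinuclear-ring GFP-p65 signal, scaled to the plate median; gene score is the average of two replicate robust z-scores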
- Scale: p65 translocation robust z-score: higher = more nuclear NF-kappaB p65 after LPS than the plate median; nuclear/cytoplasmic p65 ratio: higher = more nuclear NF-kappaB p65
- Call rule: 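Called active when z exceeds 3.3 or falls under -1.56 (median of Tlr4 controls), giving activity score of at least 50; no calls for control wells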
- Meaning of the calls: active = hit (p65 shift raised or lowered); inactive = no clear change

Atrnl1 gave p65 translocation robust z-score -1.07; nuclear/cytoplasmic p65 ratio, rep 1 = 1.34; nuclear/cytoplasmic p65 ratio, rep 2 = 1.46; low cell count flag enough cells to score. Against Qrfpr, the entry reads p65 translocation robust z-score 1.63; nuclear/cytoplasmic p65 ratio, rep 1 = 1.74; nuclear/cytoplasmic p65 ratio, rep 2 = 1.82; low cell count flag enough cells to score. With knock-down of Gpr149, the screen gave p65 translocation robust z-score 1.43; nuclear/cytoplasmic p65 ratio, rep 1 = 1.65; nuclear/cytoplasmic p65 ratio, rep 2 = 1.85; low cell count flag enough cells to score. Against Ccdc28b, the entry reads nuclear/cytoplasmic p65 ratio, rep 2 = 1.22; low cell count flag fewer than 50 cells per well; well left out of scoring. After knock-down of Myf5, the screen gave p65 translocation robust z-score 1.48; nuclear/cytoplasmic p65 ratio, rep 1 = 1.59; nuclear/cytoplasmic p65 ratio, rep 2 = 1.57; low cell count flag enough cells to score. Stra6 scored nuclear/cytoplasmic p65 ratio, rep 1 = 1.14; nuclear/cytoplasmic p65 ratio, rep 2 = 1.07; low cell count flag fewer than 50 cells per well; well left out of scoring.

Knock-down of Or52ae9 resulted in: p65 translocation robust z-score -0.32; nuclear/cytoplasmic p65 ratio, rep 1 = 1.43; nuclear/cytoplasmic p65 ratio, rep 2 = 1.21; low cell count flag enough cells to score. With knock-down of Nelfa, the record shows p65 translocation robust z-score -0.62; nuclear/cytoplasmic p65 ratio, rep 1 = 1.42; nuclear/cytoplasmic p65 ratio, rep 2 = 1.51; low cell count flag enough cells to score. Depletion of Or4f60 came out at: p65 translocation robust z-score 0.82; nuclear/cytoplasmic p65 ratio, rep 1 = 1.73; nuclear/cytoplasmic p65 ratio, rep 2 = 1.6; low cell count flag enough cells to score. Silencing of Cilp gave: p65 translocation robust z-score -0.04; nuclear/cytoplasmic p65 ratio, rep 1 = 1.65; nuclear/cytoplasmic p65 ratio, rep 2 = 1.71; low cell count flag enough cells to score. Knock-down of Pold3 resulted in: p65 translocation robust z-score -1.25; nuclear/cytoplasmic p65 ratio, rep 1 = 1.22; nuclear/cytoplasmic p65 ratio, rep 2 = 1.08; low cell count flag enough cells to score. Cd36 showed p65 translocation robust z-score 0.95; nuclear/cytoplasmic p65 ratio, rep 1 = 1.59; nuclear/cytoplasmic p65 ratio, rep 2 = 1.5; low cell count flag enough cells to score.

Abcg8 gave p65 translocation robust z-score 0.15; nuclear/cytoplasmic p65 ratio, rep 1 = 1.65; nuclear/cytoplasmic p65 ratio, rep 2 = 1.62; low cell count flag enough cells to score. Tcap gave p65 translocation robust z-score 0.49; nuclear/cytoplasmic p65 ratio, rep 1 = 1.73; nuclear/cytoplasmic p65 ratio, rep 2 = 1.44; low cell count flag enough cells to score. Osr2 scored p65 translocation robust z-score 1.6; nuclear/cytoplasmic p65 ratio, rep 1 = 1.64; nuclear/cytoplasmic p65 ratio, rep 2 = 1.44; low cell count flag enough cells to score. Prmt6 showed p65 translocation robust z-score -1.06; nuclear/cytoplasmic p65 ratio, rep 1 = 1.38; nuclear/cytoplasmic p65 ratio, rep 2 = 1.43; low cell count flag enough cells to score. After knock-down of Csnk1g3 #1, the record shows nuclear/cytoplasmic p65 ratio, rep 1 = 2.01; nuclear/cytoplasmic p65 ratio, rep 2 = 1.43; low cell count flag fewer than 50 cells per well; well left out of scoring. Csnk1g3 #2 showed p65 translocation robust z-score 0.04; nuclear/cytoplasmic p65 ratio, rep 1 = 1.41; nuclear/cytoplasmic p65 ratio, rep 2 = 1.55; low cell count flag enough cells to score.

Gm4876 gave p65 translocation robust z-score 1.49; nuclear/cytoplasmic p65 ratio, rep 1 = 1.64; nuclear/cytoplasmic p65 ratio, rep 2 = 2.1; low cell count flag enough cells to score. With knock-down of Flna the results were p65 translocation robust z-score -1.15; nuclear/cytoplasmic p65 ratio, rep 1 = 1.26; nuclear/cytoplasmic p65 ratio, rep 2 = 1.17; low cell count flag enough cells to score. Gsc showed p65 translocation robust z-score -1.19; nuclear/cytoplasmic p65 ratio, rep 1 = 1.39; nuclear/cytoplasmic p65 ratio, rep 2 = 1.44; low cell count flag enough cells to score.

Sorted by “nuclear/cytoplasmic p65 ratio, rep 1” (ascending): some entries from above.
Csnk1g3 #2: p65 translocation robust z-score = 0.04; nuclear/cytoplasmic p65 ratio, rep 1 = 1.41; nuclear/cytoplasmic p65 ratio, rep 2 = 1.55; low cell count flag = enough cells to score
Gm4876: p65 translocation robust z-score = 1.49; nuclear/cytoplasmic p65 ratio, rep 1 = 1.64; nuclear/cytoplasmic p65 ratio, rep 2 = 2.1; low cell count flag = enough cells to score
Csnk1g3 #1: nuclear/cytoplasmic p65 ratio, rep 1 = 2.01; nuclear/cytoplasmic p65 ratio, rep 2 = 1.43; low cell count flag = fewer than 50 cells per well; well left out of scoring
